Data as given in paper PMC5703999, “The E. coli dicarboxylic acid transporters DauA act as a signal transducer by interacting with the DctA uptake system” (Scientific Reports, 2017).
These are yes or no findings as the source states them, for the method shown. Binding seen in cells or lysates may run through a third protein. Here binding means that the protein was enriched with, or labelled near, the bait; the list need not be complete. No binding means not detected with the bait. Tags and fused reporters may be left off the sequences shown.

Protein sequences, listed by entry. Tags and fused reporters are not part of them.
UniProt P0ABA0: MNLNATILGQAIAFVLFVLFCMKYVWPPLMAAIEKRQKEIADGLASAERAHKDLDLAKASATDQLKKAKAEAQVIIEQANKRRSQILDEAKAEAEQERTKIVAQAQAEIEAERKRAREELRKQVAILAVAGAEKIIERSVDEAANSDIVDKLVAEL

T1: Chromosomally encoded C-terminally His-tagged DauA (E. coli K-12) (UniProt P0AFR2)
T1 sequence: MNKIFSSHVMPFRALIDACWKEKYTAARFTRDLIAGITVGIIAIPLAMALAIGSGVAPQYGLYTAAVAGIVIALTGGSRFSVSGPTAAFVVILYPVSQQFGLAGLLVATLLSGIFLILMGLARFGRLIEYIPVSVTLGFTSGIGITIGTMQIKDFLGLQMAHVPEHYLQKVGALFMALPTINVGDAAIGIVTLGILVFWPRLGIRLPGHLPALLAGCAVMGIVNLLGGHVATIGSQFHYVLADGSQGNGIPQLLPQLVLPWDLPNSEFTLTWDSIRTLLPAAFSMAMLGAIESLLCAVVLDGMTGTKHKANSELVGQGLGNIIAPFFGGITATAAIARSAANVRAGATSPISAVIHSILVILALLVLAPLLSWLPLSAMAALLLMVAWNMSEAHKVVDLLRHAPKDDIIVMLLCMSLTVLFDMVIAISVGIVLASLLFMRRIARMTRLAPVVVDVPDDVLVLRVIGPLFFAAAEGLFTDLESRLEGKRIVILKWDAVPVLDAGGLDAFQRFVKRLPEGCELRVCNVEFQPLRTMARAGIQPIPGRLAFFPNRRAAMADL

B1: High frequency lysogenization protein HflD (protein, UniProt P25746 1-213)
chain: MAKNYYDITLALAGICQSARLVQQLAHQGHCDADALHVSLNSIIDMNPSSTLAVFGGSEANLRVGLETLLGVLNASSRQGLNAELTRYTLSLMVLERKLSSAKGALDTLGNRINGLQRQLEHFDLQSETLMSAMAAIYVDVISPLGPRIQVTGSPAVLQSPQVQAKVRATLLAGIRAAVLWHQVGGGRLQLMFSRNRLTTQAKQILAHLTPEL
B2: Sensor protein ZraS (protein, UniProt P14377 1-465)
chain: MRFMQRSKDSLAKWLSAILPVVIVGLVGLFAVTVIRDYGRASEADRQALLEKGNVLIRALESGSRVGMGMRMHHVQQQALLEEMAGQPGVLWFAVTDAQGIIILHSDPDKVGRALYSPDEMQKLKPEENSRWRLLGKTETTPALEVYRLFQPMSAPWRHGMHNMPRCNGKAVPQVDAQQAIFIAVDASDLVATQSGEKRNTLIILFALATVLLASVLSFFWYRRYLRSRQLLQDEMKRKEKLVALGHLAAGVAHEIRNPLSSIKGLAKYFAERAPAGGEAHQLAQVMAKEADRLNRVVSELLELVKPTHLALQAVDLNTLINHSLQLVSQDANSREIQLRFTANDTLPEIQADPDRLTQVLLNLYLNAIQAIGQHGVISVTASESGAGVKISVTDSGKGIAADQLDAIFTPYFTTKAEGTGLGLAVVHNIVEQHGGTIQVASQEGKGSTFTLWLPVNITRKDPQG
B3: PTS system fructose-specific EIIBC component (EIIBC-Fru) (protein, UniProt P20966 1-563)
chain: MKTLLIIDANLGQARAYMAKTLLGAAARKAKLEIIDNPNDAEMAIVLGDSIPNDSALNGKNVWLGDISRAVAHPELFLSEAKGHAKPYTAPVAATAPVAASGPKRVVAVTACPTGVAHTFMAAEAIETEAKKRGWWVKVETRGSVGAGNAITPEEVAAADLVIVAADIEVDLAKFAGKPMYRTSTGLALKKTAQELDKAVAEATPYEPAGKAQTATTESKKESAGAYRHLLTGVSYMLPMVVAGGLCIALSFAFGIEAFKEPGTLAAALMQIGGGSAFALMVPVLAGYIAFSIADRPGLTPGLIGGMLAVSTGSGFIGGIIAGFLAGYIAKLISTQLKLPQSMEALKPILIIPLISSLVVGLAMIYLIGKPVAGILEGLTHWLQTMGTANAVLLGAILGGMMCTDMGGPVNKAAYAFGVGLLSTQTYGPMAAIMAAGMVPPLAMGLATMVARRKFDKAQQEGGKAALVLGLCFISEGAIPFAARDPMRVLPCCIVGGALTGAISMAIGAKLMAPHGGLFVLLIPGAITPVLGYLVAIIAGTLVAGLAYAFLKRPEVDAVAKAA
B4: Inner membrane protein YbhL (protein, UniProt P0AAC4 1-234)
chain: MDRFPRSDSIVQPRAGLQTYMAQVYGWMTVGLLLTAFVAWYAANSAAVMELLFTNRVFLIGLIIAQLALVIVLSAMIQKLSAGVTTMLFMLYSALTGLTLSSIFIVYTAASIASTFVVTAGMFGAMSLYGYTTKRDLSGFGNMLFMALIGIVLASLVNFWLKSEALMWAVTYIGVIVFVGLTAYDTQKLKNMGEQIDTRDTSNLRKYSILGALTLYLDFINLFLMLLRIFGNRR
B5: DcuS fused to the T18 or T25 domain of adenylate cyclase (natural protein, E. coli, UniProt P0AEC8 1-543, looked up)
chain: MRHSLPYRMLRKRPMKLSTTVILMVSAVLFSVLLVVHLIYFSQISDMTRDGLANKALAVARTLADSPEIRQGLQKKPQESGIQAIAEAVRKRNDLLFIVVTDMQSLRYSHPEAQRIGQPFKGDDILKALNGEENVAINRGFLAQALRVFTPIYDENHKQIGVVAIGLELSRVTQQINDSRWSIIWSVLFGMLVGLIGTCILVKVLKKILFGLEPYEISTLFEQRQAMLQSIKEGVVAVDDRGEVTLINDAAQELLNYRKSQDDEKLSTLSHSWSQVVDVSEVLRDGTPRRDEEITIKDRLLLINTVPVRSNGVIIGAISTFRDKTEVRKLMQRLDGLVNYADALRERSHEFMNKLHVILGLLHLKSYKQLEDYILKTANNYQEEIGSLLGKIKSPVIAGFLISKINRATDLGHTLILNSESQLPDSGSEDQVATLITTLGNLIENALEALGPEPGGEISVTLHYRHGWLHCEVNDDGPGIAPDKIDHIFDKGVSTKGSERGVGLALVKQQVENLGGSIAVESEPGIFTQFFVQIPWDGERSNR
notes: Membrane embedded sensor histidine kinase DcuS, E. coli; also called DcuS-T18; DcuS-T25; source: bacterial two-hybrid fusion (pUT18 or pKNT25), in E. coli BTH101 (cyaA-); not shown: T18 or T25 domain of Bordetella pertussis adenylate cyclase CyaA, C-terminal, kept
B6: Cardiolipin synthase (CL synthase) (enzyme, UniProt P0A6H8 1-486)
chain: MTTVYTLVSWLAILGYWLLIAGVTLRILMKRRAVPSAMAWLLIIYILPLVGIIAYLAVGELHLGKRRAERARAMWPSTAKWLNDLKACKHIFAEENSSVAAPLFKLCERRQGIAGVKGNQLQLMTESDDVMQALIRDIQLARHNIEMVFYIWQPGGMADQVAESLMAAARRGIHCRLMLDSAGSVAFFRSPWPELMRNAGIEVVEALKVNLMRVFLRRMDLRQHRKMIMIDNYIAYTGSMNMVDPRYFKQDAGVGQWIDLMARMEGPIATAMGIIYSCDWEIETGKRILPPPPDVNIMPFEQASGHTIHTIASGPGFPEDLIHQALLTAAYSAREYLIMTTPYFVPSDDLLHAICTAAQRGVDVSIILPRKNDSMLVGWASRAFFTELLAAGVKIYQFEGGLLHTKSVLVDGELSLVGTVNLDMRSLWLNFEITLAIDDKGFGADLAAVQDDYISRSRLLDARLWLKRPLWQRVAERLFYFFSPLL
B7: UPF0434 protein YcaR (protein, UniProt P0AAZ7 1-60)
chain: MDHRLLEIIACPVCNGKLWYNQEKQELICKLDNLAFPLRDGIPVLLETEARVLTADESKS
B8: Nickel import ATP-binding protein NikE (protein, UniProt P33594 1-268)
chain: MTLLNISGLSHHYAHGGFNGKHQHQAVLNNVSLTLKSGETVALLGRSGCGKSTLARLLVGLESPAQGNISWRGEPLAKLNRAQRKAFRRDIQMVFQDSISAVNPRKTVREILREPMRHLLSLKKSEQLARASEMLKAVDLDDSVLDKRPPQLSGGQLQRVCLARALAVEPKLLILDEAVSNLDLVLQAGVIRLLKKLQQQFGTACLFITHDLRLVERFCQRVMVMDNGQIVETQVVGEKLTFSSDAGRVLQNAVLPAFPVRRRTTEKV
B9: Lipopolysaccharide export system ATP-binding protein LptB (protein, UniProt P0A9V1 1-241)
chain: MATLTAKNLAKAYKGRRVVEDVSLTVNSGEIVGLLGPNGAGKTTTFYMVVGIVPRDAGNIIIDDDDISLLPLHARARRGIGYLPQEASIFRRLSVYDNLMAVLQIRDDLSAEQREDRANELMEEFHIEHLRDSMGQSLSGGERRRVEIARALAANPKFILLDEPFAGVDPISVIDIKRIIEHLRDSGLGVLITDHNVRETLAVCERAYIVSQGHLIAHGTPTEILQDEHVKRVYLGEDFRL
B10: Aerobic C4-dicarboxylate transport protein DctA, endogenous (protein, UniProt P0A830 1-428)
chain: MKTSLFKSLYFQVLTAIAIGILLGHFYPEIGEQMKPLGDGFVKLIKMIIAPVIFCTVVTGIAGMESMKAVGRTGAVALLYFEIVSTIALIIGLIIVNVVQPGAGMNVDPATLDAKAVAVYADQAKDQGIVAFIMDVIPASVIGAFASGNILQVLLFAVLFGFALHRLGSKGQLIFNVIESFSQVIFGIINMIMRLAPIGAFGAMAFTIGKYGVGTLVQLGQLIICFYITCILFVVLVLGSIAKATGFSIFKFIRYIREELLIVLGTSSSESALPRMLDKMEKLGCRKSVVGLVIPTGYSFNLDGTSIYLTMAAVFIAQATNSQMDIVHQITLLIVLLLSSKGAAGVTGSGFIVLAATLSAVGHLPVAGLALILGIDRFMSEARALTNLVGNGVATIVVAKWVKELDHKKLDDVLNNRAPDGKTHELSS

Target: T1, Chromosomally encoded C-terminally His-tagged DauA (E. coli K-12)
Test: affinity purification with mass spectrometry; chromosomal DauA-H6 purified by IMAC (Co2+ HisTrap) from membranes extracted with 2% DDM, cells grown overnight in LB with fumarate; elution fractions of two biological replicates analysed by nLC-MS/MS; proteins found with the non-tagged strain subtracted

Row | Molecule | binding
1 | ATP synthase subunit b (from UniProt P0ABA0 1-156) | binds
2 | B1 | binds
3 | B2 | binds
4 | B3 | binds
5 | B4 | binds
6 | B5 | no binding
7 | B6 | binds
8 | B7 | binds
9 | B8 | binds
10 | B9 | binds
11 | B10 | binds
